Assay results reported in article PMC8550248.
These are yes or no findings as the source states them, for the method shown. For some of these results: In cells and extracts the contact can be indirect. Some results given as binding are weak or reduced against the parent protein; the word gives no strength. For some of these results: Sequences can lack the tags named with a protein. Blank lines part the entries; values can stand above or below the substance they belong to.

Sequences of proteins named here, by UniProt entry; tags and fusion partners are left off.
UniProt Q9UPY3: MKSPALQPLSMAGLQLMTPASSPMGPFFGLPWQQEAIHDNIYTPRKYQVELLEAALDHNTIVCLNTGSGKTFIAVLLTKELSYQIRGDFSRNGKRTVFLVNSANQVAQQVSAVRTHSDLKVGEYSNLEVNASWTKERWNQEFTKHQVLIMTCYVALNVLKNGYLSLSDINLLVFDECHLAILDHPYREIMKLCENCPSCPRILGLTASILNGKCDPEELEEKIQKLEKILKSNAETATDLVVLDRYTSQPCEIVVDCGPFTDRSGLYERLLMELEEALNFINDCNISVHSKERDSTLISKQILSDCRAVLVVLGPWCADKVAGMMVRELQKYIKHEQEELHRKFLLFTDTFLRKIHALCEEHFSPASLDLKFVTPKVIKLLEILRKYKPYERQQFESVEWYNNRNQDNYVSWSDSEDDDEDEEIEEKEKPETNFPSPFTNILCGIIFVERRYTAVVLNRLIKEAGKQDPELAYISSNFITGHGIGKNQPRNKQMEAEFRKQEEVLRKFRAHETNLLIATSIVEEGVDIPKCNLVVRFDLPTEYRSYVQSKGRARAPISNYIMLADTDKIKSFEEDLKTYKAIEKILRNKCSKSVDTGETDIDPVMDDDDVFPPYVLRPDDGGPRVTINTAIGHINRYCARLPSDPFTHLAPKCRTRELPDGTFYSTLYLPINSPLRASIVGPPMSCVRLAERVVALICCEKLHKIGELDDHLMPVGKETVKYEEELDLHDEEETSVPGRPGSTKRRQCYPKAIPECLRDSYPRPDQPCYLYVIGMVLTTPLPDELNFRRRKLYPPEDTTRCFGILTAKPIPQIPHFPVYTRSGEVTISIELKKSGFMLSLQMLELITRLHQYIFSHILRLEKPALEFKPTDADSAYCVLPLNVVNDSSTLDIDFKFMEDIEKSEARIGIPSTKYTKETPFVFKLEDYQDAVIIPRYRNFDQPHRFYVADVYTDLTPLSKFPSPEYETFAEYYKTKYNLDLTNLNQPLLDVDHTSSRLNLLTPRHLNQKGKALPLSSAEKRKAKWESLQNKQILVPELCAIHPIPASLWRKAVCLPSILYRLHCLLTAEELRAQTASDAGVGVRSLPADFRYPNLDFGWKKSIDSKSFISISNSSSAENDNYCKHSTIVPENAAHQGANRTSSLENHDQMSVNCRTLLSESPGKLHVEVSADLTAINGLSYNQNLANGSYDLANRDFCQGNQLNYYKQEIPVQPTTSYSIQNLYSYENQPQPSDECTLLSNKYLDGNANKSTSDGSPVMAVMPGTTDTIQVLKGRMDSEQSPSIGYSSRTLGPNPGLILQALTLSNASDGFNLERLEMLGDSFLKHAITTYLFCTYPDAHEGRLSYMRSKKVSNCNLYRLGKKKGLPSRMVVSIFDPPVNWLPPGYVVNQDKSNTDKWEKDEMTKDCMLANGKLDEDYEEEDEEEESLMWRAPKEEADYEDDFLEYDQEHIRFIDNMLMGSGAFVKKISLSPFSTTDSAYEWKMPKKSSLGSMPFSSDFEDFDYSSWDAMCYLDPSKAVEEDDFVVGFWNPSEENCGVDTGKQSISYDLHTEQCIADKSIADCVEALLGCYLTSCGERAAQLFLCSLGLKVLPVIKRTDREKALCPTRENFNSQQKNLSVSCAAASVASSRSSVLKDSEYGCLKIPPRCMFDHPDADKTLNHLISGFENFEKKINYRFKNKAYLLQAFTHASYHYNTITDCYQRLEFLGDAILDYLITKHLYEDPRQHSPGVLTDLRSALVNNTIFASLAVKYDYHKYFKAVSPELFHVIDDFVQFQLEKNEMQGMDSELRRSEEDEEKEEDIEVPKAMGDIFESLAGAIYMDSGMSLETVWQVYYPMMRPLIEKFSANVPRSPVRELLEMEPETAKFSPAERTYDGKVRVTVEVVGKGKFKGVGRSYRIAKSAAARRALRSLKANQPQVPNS

Experiments:
[1] = target: mp53-3KR (K➔R mutation at K117, K161, and K162) (mouse) (UniProt P02340); assay: co-IP; H1299 cotransfected with expression vectors; lysate in BC100 buffer; Flag M2 Affinity Gel or Streptavidin beads or antibody; Western blot
mouse p53 WT (mouse) = mouse p53 WT (mouse) (UniProt P02340); assay: as above
[2] = target: T1, endogenous SUV39H1 (human (endogenous in HCT116)) (UniProt O43463); assay: co-IP; endogenous Dicer and SUV39H1, HCT116 lysate; Western blot
T1 sequence: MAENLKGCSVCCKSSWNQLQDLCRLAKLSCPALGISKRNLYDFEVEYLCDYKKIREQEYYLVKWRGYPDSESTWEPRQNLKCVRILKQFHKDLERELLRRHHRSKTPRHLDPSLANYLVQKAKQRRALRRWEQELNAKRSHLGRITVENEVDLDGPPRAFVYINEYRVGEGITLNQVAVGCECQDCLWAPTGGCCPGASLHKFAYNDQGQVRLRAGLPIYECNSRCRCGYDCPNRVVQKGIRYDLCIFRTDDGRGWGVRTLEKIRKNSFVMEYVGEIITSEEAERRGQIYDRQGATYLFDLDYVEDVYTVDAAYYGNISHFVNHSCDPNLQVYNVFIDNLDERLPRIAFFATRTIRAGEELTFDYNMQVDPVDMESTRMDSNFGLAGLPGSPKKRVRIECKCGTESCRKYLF

Flag-SUV39H1 = target: T2, Flag-SUV39H1 (UniProt O43463); assay: pull-down; Flag-SUV39H1 immobilised on Flag M2 Affinity Gel, incubated with purified Dicer 4 hours at 4°C, washed with BC100 buffer six times; Western blot; both purified
T2 sequence: T1 sequence

binding [1]: binds | binding (mouse p53 WT (mouse)): binds
Substance: HA-tagged Dicer (full length, amino acids 1 to 1922), expressed in H1299 (from UniProt Q9UPY3 1-1922)

binding [2]: binds
Substance: Dicer (endogenous) (from UniProt Q9UPY3 1-1922)

binding (Flag-SUV39H1): binds
Substance: HA-tagged Dicer, from HEK293 (from UniProt Q9UPY3 1-1922)
